## Library screen at single concentrations

T. brucei: 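Whole-parasite assay of Trypanosoma brucei over 72 hours; the read-out is not stated. Compounds at 30 µM. Direction is inferred from retests: higher values go with stronger inhibition. Values scatter widely below zero; nearly all retest evidence comes from the higher of the two concentrations used. Size under these conditions: about 64,000 compounds, about 940 of them at 50% or above in at least one test.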
Leishmania in macrophages: 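Cell assay of Leishmania donovani living inside macrophages; the read-out is not stated. Concentration: 30 µM. Higher reads as stronger inhibition (inferred: compounds with an IC50 in retests scored well above the rest). About 69,000 compounds were tested under these conditions; 1.5% (about 1,000) showed 50% or more at least once.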

The filed quantity is “Percent Effect” (%). The controls that fix the scale are not given in the record; negative values are as filed. The compounds are a random part of those screened. A dash means the value is not listed here; it may have been measured.

Compound | T. brucei | Leishmania in macrophages
Cc1ccc(C(NC(=O)CC2CCN(C(C)C)CC2)C(=O)O)cc1 (stereo not shown) | -2.223% | 21.29%
Cc1nc(C)n(Cc2cccc(NC(=O)NC(C)(CO)C3CC3)c2)n1 (stereo not shown) | -60.08% | 12.07%
Cc1ccc(-n2cnc(Cl)c2CO)cc1 | -5.151% | 12.87%
Cc1noc(C)c1C(=O)NCC(c1cccc(F)c1)N(C)C (stereo not shown) | - | 28.2%
Cn1c(=O)c2cc(C(=O)NCc3ccncc3)ccc2n(C)c1=O | -10.3% | 28.54%
[H][C@]12CCCCN1CCC[C@H]2Cn1ccnc1-c1cccc2cccnc12 | -4.632% | 32.62%
Cc1nc[nH]c1CN1CCCC12CCN(c1ccccn1)CC2 | 6.479% | -2.881%
CCS(=O)(=O)N(C)CCCNCc1c(C)nn(C)c1N(C)C | 3.185% | 23%
CC(C#N)(NC(=O)COc1ccccc1Br)C1CC1 (stereo not shown) | -23.79% | 29.06%
Cc1cc(C(=O)NC2CCc3c(ccc(=O)n3CC3CC3)C2)no1 (stereo not shown) | 26.74% | 5.669%
NC(=O)COc1cccc(Cn2cccn2)c1 | 7.751% | -2.547%
CCc1nc(CN2CCCN(CC(=O)Nc3cccnc3)CC2)no1 | -12.2% | -13.64%
CCc1cc(NC2CCS(=O)(=O)CC2)nc(N2CCCCC2)n1 | -0.9204% | -6.887%
CC1CN(C)CCN1C(=O)Nc1nc(-c2cccn2C)cs1 (stereo not shown) | -7.968% | 11.85%
NC(=O)CN1CC2(CCC1=O)CCN(Cc1ccccc1F)CC2 | 2.4% | 25.27%
Cc1cnc(N2CCCC3(COCCN(c4nccs4)C3)C2)nc1 (stereo not shown) | -22.75% | 19.94%
Cc1cc(C)c(C(=O)N2CCOCC2c2c(C)nn(C)c2C)o1 (stereo not shown) | - | 30.76%
O=C(CCc1cc2n(n1)CCCN(C(=O)c1ccncc1)C2)NC1CC1 | -17.55% | -18.32%
CCN1CCC(N2CCN(C)C3(CCC(=O)N(CCOC)CC3)C2)CC1 (stereo not shown) | 33.3% | 13.15%
Cc1ccccc1CNCC(O)c1ccc(OC(C)C)cc1 (stereo not shown) | 20.11% | 17.45%
Nc1nnnn1NCc1ccccc1C(F)(F)F | 2.369% | 10.16%
CCn1c(CN2CCCC2)nnc1C1CCN(Cc2ccc(C)o2)CC1 | 3.565% | 43.06%
O=C(O)C(F)(F)F.O=C(O)C(F)(F)F.[H][C@@]12COC[C@]1(COCC(=O)N(C)C)CN(Cc1cccc(C)n1)C2 | -31.76% | -6.984%
[H][C@@]12CCCO[C@]1([H])[C@@H](Oc1cccnc1)CN2C(=O)c1ccnnc1 | 14.61% | -34.35%
O=C(O)C(F)(F)F.O=C(O)C(F)(F)F.O=C(O)C(F)(F)F.[H][C@]12C[C@@H](Cn3cccn3)N(C)[C@@]1([H])CCN(Cc1cccs1)C2 | -3.772% | -4.815%
CC(C)NC(=O)N1CCC2(CC(=O)N(c3cccc(C#N)c3)C2)C1 (stereo not shown) | -22.17% | -4.868%
CCN1CCCC(CN2CCn3nc(CNC(=O)N(C)C)cc3C2)C1 (stereo not shown) | -26.88% | 3.38%
CN(Cc1ccc(O)cc1)C(=O)NC1CCCN(c2ncccn2)C1 (stereo not shown) | 10.72% | 19.92%
[H][C@]12CC[C@]([H])(CC(=O)NC1)N2c1cc(-c2ccccc2F)nc2ccnn12 | -1.259% | 34.28%
CN(C)S(=O)(=O)NCc1nn(CCN2CCCC2)c(=O)c2ccccc12 | -70.52% | 4.88%
CCC(CC)c1nnc(NC(=O)N2CCCC(NC(C)=O)C2)s1 (stereo not shown) | 3.873% | 26.46%
CCOCC(O)CN1CCN(C(=O)c2ccc(OC)cc2F)CC1 (stereo not shown) | 16.77% | 24.58%
CC(C)N(C)CC(=O)NC1CCc2nccn2C1 (stereo not shown) | -59.82% | 0.1323%
Cc1nc(CN2CCCC(NCCCOc3ccc(F)cc3)C2)no1 (stereo not shown) | - | 25.14%
CC(C)Cn1ccc2c(NC(=O)c3n[nH]c4c3CCC4)cccc21 | 8.967% | 34.15%
O=C(NCC(O)c1ccsc1)c1sccc1OC(F)F (stereo not shown) | 8.128% | -6.091%
O=C(c1cc(-c2cccnc2)[nH]n1)N1CCCC(c2cnccn2)C1 (stereo not shown) | -14.43% | 2.098%
O=C(CCCn1cnnn1)N1CCC(c2ccncc2)CC1 | -96.57% | 15.08%
CC(C)c1nc(CN2CCCN(Cc3nnc(C4CC4)o3)CC2)no1 | -2.436% | 7.491%
CC(C(=O)Nc1ccc2ccccc2c1)N1CCC(n2ccnc2)CC1 (stereo not shown) | -4.38% | 33.27%
COCc1nn(CC2CC2)c2c1CN(Cc1cncn1C)CC2.O=C(O)C(F)(F)F | -20.06% | 10.55%
O=C(C1CC1)N1CCCC1c1nnc2n1CCCCC2 (stereo not shown) | -31.5% | -1.75%
CCOc1ncccc1NC(=O)c1cccs1 | -20.87% | -11.53%
Cc1cc(C(=O)N2CCC(c3nnc(Cn4ccnc4)n3C)CC2)cs1 | -38.58% | 9.396%
CC(C)(C)CC(=O)NCC(=O)NS(=O)(=O)c1cccnc1 | -30.93% | 3.169%
CCOCC(=O)NCc1cc(Br)ccc1OC(F)F | 17.43% | 13.78%
Fc1ccc(-c2cnc(C3CCNCC3)cn2)cc1 | 58.37% | -0.9825%
O=C(NCCN1CCOCC1)N(CCCO)C1CCCc2ccccc21 (stereo not shown) | 12% | 15.17%
CC(=O)N1CCN(C(=O)CN(C)c2ccc(Cl)cn2)CC1 | -4.742% | -5.643%

The last 4 entries again:

Compound	T. brucei	Leishmania in macrophages
CCOCC(=O)NCc1cc(Br)ccc1OC(F)F	17.43%	13.78%
Fc1ccc(-c2cnc(C3CCNCC3)cn2)cc1	58.37%	-0.9825%
O=C(NCCN1CCOCC1)N(CCCO)C1CCCc2ccccc21 (stereo not shown)	12%	15.17%
CC(=O)N1CCN(C(=O)CN(C)c2ccc(Cl)cn2)CC1	-4.742%	-5.643%

Measurements from “University of Dundee, Small-Polar-MMV Screening Library” (2021), ChEMBL document CHEMBL3988442.